The results in this text go back to patent US6730828B1, “Isolated nucleic acids encoding a wheat glutathione transferase, plants transformed therewith and methods of use thereof” (Aventis Agriculture Limited, priority 1997, dated 2004).

Assay [1] concerns the target T1, TaGST3 subunit (26 kDa, safener-inducible) (wheat (Triticum aestivum L.)).
T1 sequence: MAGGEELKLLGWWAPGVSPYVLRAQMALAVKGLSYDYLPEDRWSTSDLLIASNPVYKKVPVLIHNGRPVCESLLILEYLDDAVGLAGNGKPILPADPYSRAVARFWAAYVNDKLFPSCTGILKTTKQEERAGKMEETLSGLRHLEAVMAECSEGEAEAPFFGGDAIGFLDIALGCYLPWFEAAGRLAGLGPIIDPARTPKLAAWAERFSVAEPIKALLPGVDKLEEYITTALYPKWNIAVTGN
Briefly: subunit composition of purified isoenzymes (anion exchange, reversed-phase HPLC, SDS-PAGE).

The target of assay [2] is T2, TaGST2 subunit (26 kDa, safener-inducible) (wheat (Triticum aestivum L.)).
T2 sequence: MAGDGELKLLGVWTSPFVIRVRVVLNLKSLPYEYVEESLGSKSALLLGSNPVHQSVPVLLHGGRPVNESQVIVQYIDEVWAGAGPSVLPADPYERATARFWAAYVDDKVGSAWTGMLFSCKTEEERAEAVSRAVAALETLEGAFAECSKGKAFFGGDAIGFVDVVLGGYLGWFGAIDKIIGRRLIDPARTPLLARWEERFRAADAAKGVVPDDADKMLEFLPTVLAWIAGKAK
Described as above.

Results are given in words; binding and its absence hold for the method and conditions named. Some results given as binding are weak or reduced against the parent protein; the word gives no strength. Sequences can lack the tags named with a protein.

B1: Triticum aestivum GST 1 subunit (25 kDa) (enzyme)
chain: MAGEKGLVLLDFWVSPFGQRVRIALAEKGLPYEYAEEDLMAGKSDRLLRANPVHKKIPVLLHDGRAVNESLIILQYLEEAFPDAPALLPSDPYARAQARFWADYVDKKVYDCGSRLWKLKGEPQAQARAEMLDILKTLDGALGDKPFFGGDKFGFVDAAFAPFTAWFHSYERYGEFSLPEVAPKIAAWAKRCGERESVAKSLYSPDKVYDFIGLLKKKYGIE
notes: Native subunit in wheat shoot extracts; also called TaGST1
With B1, the binding entry in assay [1] and in assay [2] was “binds” in each case.
